For part of these data: A weaker result is weaker than the reference pair of the same experiment. For part of these data: Tags and fusion partners may be left off the protein sequences shown. For part of these data: For at least one entry, the source does not settle the construct or the ends of the probe.
What was measured:
ORF1p WT (Homo sapiens) [1] = target: T1, ORF1p WT (Homo sapiens) (UniProt Q9UN81); test: competition (fluorescence anisotropy); details: apparent Kd, DNA curtains: 50, 150 or 300 mM KCl, RNP premix 1 min at room temperature, recombinant protein, protein details: tag removed, N-terminal G left
T1 sequence: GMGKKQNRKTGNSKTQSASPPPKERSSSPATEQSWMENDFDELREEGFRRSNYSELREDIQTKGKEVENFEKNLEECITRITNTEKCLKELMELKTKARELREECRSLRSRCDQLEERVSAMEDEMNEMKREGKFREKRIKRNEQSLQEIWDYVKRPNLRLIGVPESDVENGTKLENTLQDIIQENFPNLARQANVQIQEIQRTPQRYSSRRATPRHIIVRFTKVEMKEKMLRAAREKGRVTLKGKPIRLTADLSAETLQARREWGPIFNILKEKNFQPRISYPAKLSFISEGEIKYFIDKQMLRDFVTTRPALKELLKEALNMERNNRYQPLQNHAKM

ORF1p WT (Homo sapiens) [2] = target: T1, ORF1p WT (Homo sapiens); test: fluorescence anisotropy; details: slightly reduced affinity, Anisotropy: 20 mM Hepes pH 7.5, 50 mM KCl, 1 mM MgCl2, 1 mM DTT, 1 nM 6-FAM oligo, temperature not stated, recombinant protein, protein details: tag removed, N-terminal G left, label: 5' 6-FAM (anisotropy)
[3] = target: T2, ΔStammer-ORF1p del91-93 (Homo sapiens) (UniProt Q9UN81); test: fluorescence anisotropy; details: slight Kd increase vs WT, P=0.041; Anisotropy: 20 mM Hepes pH 7.5, 50 mM KCl, 1 mM MgCl2, 1 mM DTT, 1 nM 6-FAM oligo, temperature not stated; recombinant protein; protein details: tag removed by TEV, N-terminal G left; label: 5' 6-FAM (anisotropy)
T2 sequence: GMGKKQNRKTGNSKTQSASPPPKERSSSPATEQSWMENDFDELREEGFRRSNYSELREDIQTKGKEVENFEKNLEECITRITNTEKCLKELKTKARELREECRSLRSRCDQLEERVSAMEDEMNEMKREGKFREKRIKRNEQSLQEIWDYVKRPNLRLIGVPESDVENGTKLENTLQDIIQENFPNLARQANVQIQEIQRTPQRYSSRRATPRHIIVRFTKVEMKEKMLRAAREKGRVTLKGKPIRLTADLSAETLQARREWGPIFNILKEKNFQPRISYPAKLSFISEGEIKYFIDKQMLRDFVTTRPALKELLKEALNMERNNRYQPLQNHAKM

[4] = target: His-TEV-ORF1p (Homo sapiens) (UniProt Q9UN81); test: fluorescence anisotropy; details: slight Kd increase vs WT, P=0.018; Anisotropy: 20 mM Hepes pH 7.5, 50 mM KCl, 1 mM MgCl2, 1 mM DTT, 1 nM 6-FAM oligo, temperature not stated; recombinant protein; protein details: uncleaved N-terminal His-TEV, C-terminal ybbR; label: 5' 6-FAM (anisotropy)

| Sequence | Kd (ORF1p WT (Homo sapiens) [1]; ORF1p presaturated with 100 nM 30 nt RNA, label: 5' 6-FAM on strand 1 (anisotropy)) | Kd (ORF1p WT (Homo sapiens) [1]; ORF1p presaturated with 100 nM 30 bp dsDNA, label: 5' 6-FAM (anisotropy)) | binding result (ORF1p WT (Homo sapiens) [2]; 150 mM KCl) | binding result (ORF1p WT (Homo sapiens) [2]; 300 mM KCl) | binding result [3] | binding result [4] |
| --- | --- | --- | --- | --- | --- | --- |
| ACCATCATCAAAGACCAAAAGTAGATAAAA (double strand) [30 bp dsDNA] | 644 nM |  |  |  |  |  |
| ACCAUCAUCAAAGACCAAAAGUAGAUAAAA [30 nt RNA] |  | 95 nM | binds more weakly | binds more weakly | binds more weakly | binds more weakly |
